Measurements reported in PubChem BioAssay AID686943 (Drosophila RNAi Screening Center, 2013)

- Assay: 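Fly genes whose loss alters ERK activation after insulin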 (primary screen)
- System: Drosophila S2R+ haemocyte-like cells expressing YFP-tagged ERK (Rolled)
- Knock-down reagent: long dsRNA against Drosophila genes
- Conditions: insulin stimulation versus unstimulated cells; dose and duration not given
- Read-out: 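Antibody staining for doubly phosphorylated ERK divided by ERK-YFP signal, as plate z-scores, in insulin-treated and untreated cells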
- Scale: replicate 1, z-score of dpERK with insulin: higher = more active ERK per ERK-YFP after insulin
The deposit covers about 23,000 reagents; below is an unselected part of those that have a named target and a result. 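Extra replicates exist only for a retested subset of genes; insulin dose and duration not given; both raised and lowered dpERK matter.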 Reagents against one gene are numbered here. A plus sign joins genes that one reagent is predicted to hit. Not all columns of the deposit are shown. Not stated in the record: the amount of reagent, the time to read-out.

| Gene | dsRNA no. | replicate 1, z-score of dpERK with insulin |
| --- | --- | --- |
| Syx16 | 1 | 0.48 |
| CG3734 | 1 | 0.16 |
| CG31233 | 1 | 0.93 |
| CG14985 | 1 | 0.27 |
| CG14985 | 2 | -0.52 |
| CG16820 | 1 | -0.4 |
| CG32461 | 1 | -0.24 |
| GstE7 | 1 | -0.44 |
| l(3)80Fj | 1 | -2.21 |
| l(3)80Fj | 2 | -0.29 |
| CG1227 | 1 | -0.66 |
| CG2004 | 1 | 0.93 |
| CG32811 | 1 | 0.79 |
| CG17129 | 1 | -0.3 |
| Polr2M | 1 | 1.85 |
| CG1789 | 1 | 0.01 |
| Trpml + CG42638 | 1 | -0.56 |
| Acn | 1 | 1.27 |
| clt | 1 | 0.32 |
| CG3253 | 1 | 0.31 |
| lectin-46Cb | 1 | 0.75 |
| CG15734 | 1 | 0.66 |
| Rcc1 | 1 | 0.4 |
| CG32440 | 1 | -0.46 |
| CG31955 | 1 | 0.53 |
| asRNA:CR43468 + Lfg | 1 | 0.96 |
| Prp5 | 1 | 1.48 |
| CG8329 | 1 | 0.14 |
| Pp1-13C | 1 | -1.54 |
| CG3526 | 1 | 1.72 |
| CG3526 | 2 | 1.31 |
| Pmm2 | 1 | 0.48 |
| Arl6 | 1 | 0.68 |
| l(1)10Bb | 1 | 0.02 |
| mRpL9 | 1 | -0.21 |
| DNaseII | 1 | 0.19 |
| CG8299 | 1 | -0.32 |
| ATP7 | 1 | 0.53 |
| CG34355 | 1 | 0.91 |
| CG34355 | 2 | 0.11 |
| CG34355 | 3 | 1.24 |
| CG34355 | 4 | 1.1 |

Reformatted: results already given
{"Gene": "Pp1-13C", "dsRNA no.": 1, "replicate 1, z-score of dpERK with insulin": -1.54}
{"Gene": "CG3526", "dsRNA no.": 1, "replicate 1, z-score of dpERK with insulin": 1.72}
{"Gene": "CG3526", "dsRNA no.": 2, "replicate 1, z-score of dpERK with insulin": 1.31}
{"Gene": "Pmm2", "dsRNA no.": 1, "replicate 1, z-score of dpERK with insulin": 0.48}
{"Gene": "Arl6", "dsRNA no.": 1, "replicate 1, z-score of dpERK with insulin": 0.68}
{"Gene": "l(1)10Bb", "dsRNA no.": 1, "replicate 1, z-score of dpERK with insulin": 0.02}
